Measured values from PubChem BioAssay AID493014 (National Center for Advancing Translational Sciences (NCATS), 2011).
The list shows a part of the results. Shown are side measurements of this screen, not its main read-out; they come without a call. Compounds called inactive in the main read-out are mostly missing here. Words in brackets tell the shape of the fitted curve; partial curves, single points and poor fits give uncertain potencies.

Assay: qHTS Assay to Find Inhibitors of Chronic Active B-Cell Receptor Signaling
Conditions: ABC-DLBCL IkBa-CBG/CBR reporter, luminescence ratio (green luciferase fused to IkBa over red control in TMD8 lymphoma cells), 4 h
Summary of the method: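 Compounds up to 46 uM were incubated four hours with TMD8 cells whose green CBG68 luciferase is fused to IkappaBalpha; red CBR luminescence normalised the signal, and concentration-effect curves were fitted to fusion, red and ratio data.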

[1] = measured here: CBR red luminescence, cell number
[2] = measured here: IkBa-CBG green luminescence

Structure (SMILES)	AC50 [1]	AC50 [2]
CN1C(CC(=O)Nc2ccc(Br)cc2)c2ccccc2CC1(C)C (stereo not given)	11.2 µM [falling, single point]	
CC1C=CCC2C(=O)N(c3cccc(C(=O)Nc4ccc(F)cc4)c3)C(=O)C12 (stereo not given)	35.5 µM [falling, single point]	
Cc1ccn2c(c1)nc(=S)n2C(=O)c1ccco1	0.651 µM [rising, full curve]	
O=C1CN(CC(=O)N2CCOCC2)c2ccccc2O1	3.16 µM [falling, partial curve]	
COc1ccc(S(=O)(=O)n2nc(C)cc2C)c(C)c1C	6.51 µM [rising, single point]	
COc1cccc2cc(/C(=N/O)c3ccc(Br)cc3)oc12	25.1 µM [rising, single point]	
CCOC(=O)Nc1ccc2c(c1)N(C(=O)CCN(CC)CC)c1ccccc1CC2	8.91 µM [falling, partial curve]	
CCOC(=O)C1=C(c2ccccc2)N(C)C(=O)NC1c1ccc(OC(F)F)c(OC)c1 (stereo not given)	22.4 µM [falling, single point]	
CCOc1ccccc1NC(=O)Cn1nnc(-c2ccc(OCC)c(OCC)c2)n1	23.1 µM [falling, single point]	
Cn1cnc2c1c(=O)n(Cc1ccccc1)c(=O)n2C	5.17 µM [falling, partial curve, poor fit]	2.06 µM [rising, partial curve, poor fit]
Cc1nn(S(=O)(=O)N2CCCCC2)c(C)c1Br	4.11 µM [rising, single point]	
COc1ccccc1C1(O)CCN(CC(=O)Nc2nc(-c3ccccc3)cs2)CC1	2 µM [rising, partial curve, poor fit]	
CC1(C)CC(=O)C=C(Nc2cc(-c3ccccc3)[nH]n2)C1	14.1 µM [falling, partial curve]	
Cc1occc1C(=O)N/N=C/C(Br)=C\c1ccccc1	10 µM [falling, partial curve]	
CCc1c(C)[nH]n(-c2nc(-c3ccccc3)cs2)c1=O	0.794 µM [rising, full curve, poor fit]	
COCCN(CC(=O)Nc1cccc(C)c1C)C(=O)CN1C(=O)NC2(CCCCC2)C1=O	32.6 µM [rising, single point]	
CSc1nc2ccc(NC(=O)CSc3nnc(N)s3)cc2s1	32.6 µM [falling, single point]	
COc1cc(OC)c2c(-c3cccc(-c4ccc(N(C)C)cc4)c3)cc(=O)oc2c1	1.3 µM [rising, full curve]	1.84 µM [falling, full curve]

Sorted by formula weight (smallest number first): part of the list above
Structure (SMILES)	AC50 [1]	AC50 [2]
Cc1nn(S(=O)(=O)N2CCCCC2)c(C)c1Br	4.11 µM [rising, single point]	
CN1C(CC(=O)Nc2ccc(Br)cc2)c2ccccc2CC1(C)C (stereo not given)	11.2 µM [falling, single point]	
COc1ccccc1C1(O)CCN(CC(=O)Nc2nc(-c3ccccc3)cs2)CC1	2 µM [rising, partial curve, poor fit]	
